In patent US20180037649A1 (OSAKA UNIVERSITY, published 2018):
Results are given in words; binding and its absence hold for the method and conditions named. Binding seen in cells or lysates may run through a third protein. Some entries that bind do so weakly or less than the wild type. For some of these results: Where a sequence is shown, tags or fusion partners need not be part of it.

By UniProt entry, the sequences of proteins in these tests, tags left out. Where a name states a change or a piece, a line headed by the entry shows the natural chain unless it says otherwise.
UniProt Q07065: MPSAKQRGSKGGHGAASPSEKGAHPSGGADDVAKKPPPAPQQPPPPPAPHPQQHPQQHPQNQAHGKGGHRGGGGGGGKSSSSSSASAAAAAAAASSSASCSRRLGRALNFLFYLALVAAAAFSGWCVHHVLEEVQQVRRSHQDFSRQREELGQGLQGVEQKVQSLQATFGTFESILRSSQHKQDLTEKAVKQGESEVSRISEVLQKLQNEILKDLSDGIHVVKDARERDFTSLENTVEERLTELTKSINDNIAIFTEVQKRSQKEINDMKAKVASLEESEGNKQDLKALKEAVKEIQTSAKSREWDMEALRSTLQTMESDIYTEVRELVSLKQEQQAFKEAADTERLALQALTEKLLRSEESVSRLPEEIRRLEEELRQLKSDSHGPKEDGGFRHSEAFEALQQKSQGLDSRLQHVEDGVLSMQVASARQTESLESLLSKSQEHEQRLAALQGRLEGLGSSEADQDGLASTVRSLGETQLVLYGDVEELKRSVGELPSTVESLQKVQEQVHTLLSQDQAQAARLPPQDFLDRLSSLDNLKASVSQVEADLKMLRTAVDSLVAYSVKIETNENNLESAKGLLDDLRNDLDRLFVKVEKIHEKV

What was measured:
GST-CKAP4-ECD (human) = GST-CKAP4-ECD (human) (UniProt Q07065); assay: pull-down: 0.5 nM GST-CKAP4-ECD with 0 to 16 nM Dkk1, immunoblot with anti-Dkk1 antibody
[1] = biological target: LRP6 of MDCK cells (endogenous) (canine); assay: co-IP with anti-FLAG antibody from MDCK/Dkk1-FLAG cell lysate, immunoblot (positive control)
[2] = biological target: CKAP4 of MDCK cells (endogenous) (canine); assay: co-IP with anti-FLAG antibody from MDCK/Dkk1-FLAG cell lysate, immunoblot
[3] = biological target: CKAP4 of MDCK cells (endogenous) (canine); assay: co-IP with anti-FLAG antibody from MDCK cell lysate, immunoblot
[4] = biological target: LRP6 of MDCK cells (endogenous) (canine); assay: as above
[5] = biological target: LRP6 of MDCK cells (endogenous) (canine); assay: co-IP with anti-FLAG antibody from MDCK/Dkk1-FLAG-GPI cell lysate, immunoblot (positive control)
[6] = biological target: CKAP4 of MDCK cells (endogenous) (canine); assay: co-IP with anti-FLAG antibody from MDCK/Dkk1-FLAG-GPI cell lysate, immunoblot

B1: Dkk1 (R&D Systems) (ligand, UniProt O94907 32-266, looked up)
chain: TLNSVLNSNAIKNLPPPLGGAAGHPGSAVSAAPGILYPGGNKYQTIDNYQPYPCAEDEECGTDEYCASPTRGGDAGVQICLACRKRRKRCMRHAMCCPGNYCKNGICVSSDQNHFRGEIEETITESFGNDHSTLDGYSRRTTLSSKMYHTKGQEGSVCLRSSDCASGLCCARHFWSKICKPVLKEGQVCTKHRRKGSHGLEIFQRCYCGEGLSCRIQKDHHQASNSSRLHTCQRH
For B1, the binding (GST-CKAP4-ECD (human)) was “binds”.

B2: Dkk1-FLAG (wild-type human Dkk1 tagged with FLAG at the C-terminal) (ligand, UniProt O94907 32-266, looked up)
chain: TLNSVLNSNAIKNLPPPLGGAAGHPGSAVSAAPGILYPGGNKYQTIDNYQPYPCAEDEECGTDEYCASPTRGGDAGVQICLACRKRRKRCMRHAMCCPGNYCKNGICVSSDQNHFRGEIEETITESFGNDHSTLDGYSRRTTLSSKMYHTKGQEGSVCLRSSDCASGLCCARHFWSKICKPVLKEGQVCTKHRRKGSHGLEIFQRCYCGEGLSCRIQKDHHQASNSSRLHTCQRH
notes: Expressed in MDCK or X293T cells; pulled down from cell lysates with an anti-FLAG antibody; also called WT-FLAG; wild-type Dkk1-FLAG (WT); not shown: FLAG tag at the C-terminal
For B2, the binding [1] was “binds”, the binding [2] was “binds” and the binding [3] was “binds”. For the same binder, the binding [4] was “binds”.

B3: Dkk1-FLAG-GPI (ligand, human, UniProt O94907 32-266, looked up, not shown: small tags and cut ends; large carriers)
chain: TLNSVLNSNAIKNLPPPLGGAAGHPGSAVSAAPGILYPGGNKYQTIDNYQPYPCAEDEECGTDEYCASPTRGGDAGVQICLACRKRRKRCMRHAMCCPGNYCKNGICVSSDQNHFRGEIEETITESFGNDHSTLDGYSRRTTLSSKMYHTKGQEGSVCLRSSDCASGLCCARHFWSKICKPVLKEGQVCTKHRRKGSHGLEIFQRCYCGEGLSCRIQKDHHQASNSSRLHTCQRH
modifications: glycosylphosphatidylinositol (GPI) anchor at the C-terminal side
B3 was tested, and the binding [5] was “binds” and the binding [6] was “binds”.
